In PubChem BioAssay AID540256 (National Center for Advancing Translational Sciences (NCATS), 2011):
Screen size: about 300,000 compounds; about 3,700 (1.2%) were called active. The shares of active, inactive and inconclusive entries below differ from those in the screen. The call rests on the fitted dose curve; tested in HEK293 cells. A potency beside an inconclusive call is a rough fit, not a confirmed value.

Assay: qHTS for Inhibitors of binding or entry into cells for Lassa Virus; further: nearly all actives have a fitted effect of over 50% in size
Conditions: Lassa virus pseudotype entry inhibition, cell reporter; activity change, negative = inhibition: at 37.9 µM (top of the series) unless noted
On the % scale 0 is the no-effect control and ±100 the full control effect; potency means the concentration at half of the fitted maximal effect.

Row | SMILES | Potency | activity change, negative = inhibition
1 | CCOc1ccc(C(=O)Nc2cccc(C(=O)O)c2C)cc1Cl | active: 9.2 µM | –
2 | CCOc1ccc(NC(=O)c2ccc3snnc3c2)cc1 | inconclusive: 3.16 µM [activator, full curve, poor fit] | –
3 | Cc1ccccc1Oc1cc(-n2ncc(Cl)c(Cl)c2=O)ncn1 | inconclusive: 3.55 µM [inhibitor, full curve, poor fit] | –
4 | CCCc1cc2c(=O)c(-c3ccccn3)coc2cc1OC | inconclusive: 6.51 µM [activator, partial curve, poor fit] | –
5 | COc1cc(C(=O)OCC(=O)NC(C)CCc2ccccc2)cc(OC)c1OC (centres undefined) | inconclusive: 5.62 µM [inhibitor, full curve] | –
6 | Cc1cnc(NC(=O)CSc2nnc(-c3ccccc3)o2)s1 | – | inactive: -14.6%
7 | COc1cc(/C=C2\SC(=Nc3ccccc3)N(CCc3c[nH]c4ccccc34)C2=O)ccc1OC(C)C(=O)O (centres undefined) | – | inactive: -0.0256%
8 | FC(F)(F)c1cc(N2CCNCC2)c2ccccc2n1 | inconclusive: 22.4 µM [inhibitor, partial curve, poor fit] | –
9 | COc1cccc(CN2CCc3nc(Nc4ccc5c(c4)OCCO5)ncc3C2)c1OC | inconclusive: 35.5 µM [inhibitor, single point] | –
10 | CCC(CC)COC(=O)C1=C(C)NC(=O)NC1c1ccccc1Br (centres undefined) | – | inactive: -15.7%
11 | CC(=O)Nc1ccc(OCc2cc(=O)n3ccccc3n2)cc1 | – | inactive: 20.2% [at 46.1 µM]
12 | Nc1nc(SCC(=O)N2CCCCC2)[nH]c(=O)c1NC(=O)c1cccs1 | – | inactive: 4.37%
13 | O=C1N/C(=N\S(=O)(=O)c2ccccc2)S/C1=C\c1cc([N+](=O)[O-])ccc1O | inconclusive: 1.78 µM [activator, full curve] | –
14 | O=C(Cn1sc2ccccc2c1=O)NC12CC3CC(CC(C3)C1)C2 | inconclusive: 35.5 µM [inhibitor, single point] | –
15 | CCCCNC(=O)C(CC)Sc1nnc(-c2ccc(F)cc2)c(-c2ccc(F)cc2)n1 (centres undefined) | inconclusive: 3.98 µM [inhibitor, full curve] | –
16 | CC1=C(C(=O)OC(C)C)C(c2ccccc2)NC(=S)N1C (centres undefined) | inconclusive: 16.4 µM [inhibitor, partial curve] | –
17 | COCCn1c(C)cc(C2=NNC(=Nc3ccccc3)SC2)c1C | inconclusive: 3.16 µM [activator, partial curve, poor fit] | –
18 | Cc1ccc(-c2ccc(/C=C(\C#N)C(N)=S)n2C)cc1 | inconclusive: 22.4 µM [activator, single point] | –
19 | Cc1cc(/C=N/O)c(C)n1-c1ccc(Br)cc1 | inconclusive: 7.94 µM [inhibitor, partial curve, poor fit] | –
20 | CCCOc1ccc(C2C(=O)N(C3CCCCC3)CC(=O)N2CCc2ccccc2)cc1OC (centres undefined) | – | inactive: -4.54% [at 46.1 µM]
21 | COc1ccc(OCCn2cnc3ccccc32)cc1 | inconclusive: 22.4 µM [activator, single point] | –
22 | CCCCCNC(=O)c1cc2c(=O)n3ccccc3nc2n1C | inconclusive: 22.4 µM [inhibitor, single point] | –
23 | CC1CCC(C(C)C)C(OC(=O)Cn2c(-c3ccccc3)[n+](C)c3ccccc32)C1 (centres undefined) | active: 7.08 µM | –

Row | SMILES | Potency | activity change, negative = inhibition
24 | COC(=O)CSc1cc([N+](=O)[O-])cc2c1c(C1OCCO1)nn2-c1ccccc1 | inconclusive: 7.08 µM [inhibitor, partial curve, poor fit] | –
25 | O=C(/C=C/c1ccc(Cl)c(Cl)c1)NCc1ccco1 | inconclusive: 18.4 µM [inhibitor, single point] | –
26 | COc1cccc(NC(=O)Nc2cccn(Cc3ccc(C)cc3)c2=O)c1 | inconclusive: 32.6 µM [inhibitor, single point] | –
27 | CC1(c2ccc(Cl)cc2)NC(=O)N(CC(=O)N2CCN(S(=O)(=O)c3ccccc3)CC2)C1=O (centres undefined) | inconclusive: 2.24 µM [inhibitor, partial curve, poor fit] | –
28 | Cc1ccc(OC(=O)c2oc3ccc(F)cc3c2C)c(C)c1 | – | inactive: -1%
29 | CCOC(=O)c1c(C)[nH]c(C(=O)COC(=O)c2ccccn2)c1C | – | inactive: 7.74%
30 | Cc1ccc(-c2nn(-c3ccccc3)cc2C=O)o1 | inconclusive: 0.891 µM [inhibitor, full curve, poor fit] | –
31 | Cc1ncsc1C(=O)Nc1nc2c(s1)CCCC2 | inconclusive: 12.6 µM [inhibitor, single point] | –
32 | CCOC(=O)C(NC(=O)Nc1ccc(F)cc1F)(Oc1ccc(F)cc1)C(F)(F)F (centres undefined) | – | inactive: -14.4%
33 | CCOC(=O)C1CCCN(C(=O)CSCc2ccccc2)C1 (centres undefined) | – | inactive: -0.529%
34 | Cc1cccc(NC(=O)CSc2nc(=O)n(Cc3ccncc3)c3c2CCC3)c1C | – | inactive: -27.5% [at 46.1 µM]
35 | COc1cc(C(c2c(C)[nH][nH]c2=O)c2c(C)[nH][nH]c2=O)cc([N+](=O)[O-])c1O | inconclusive: 35.5 µM [inhibitor, partial curve, poor fit] | –
36 | CCc1nc(N(CC)CC)c2oc3ccccc3c2n1 | – | inactive: -9.15%
37 | Cc1cccc(NC(=O)Cc2coc3ccc4ccccc4c23)n1 | inconclusive: 8.2 µM [inhibitor, partial curve, poor fit] | –
38 | CCOc1ccccc1NC(=O)N1CCCc2ccccc21 | – | inactive: 1.11% [at 46.1 µM]
39 | O=C(COc1ccc(Cl)cc1Cl)NC(=S)N1CCCc2ccccc21 | inconclusive: 5.8 µM [inhibitor, partial curve, poor fit] | –
40 | CCOC(=O)c1ccc(NC(=O)c2c(NC(=O)CCC(=O)O)sc3c2CCCCC3)cc1 | – | inactive: -13% [at 46.1 µM]
41 | COc1cc(NS(=O)(=O)c2ccc3[nH]c(=O)[nH]c3c2)cc(OC)c1 | inconclusive: 12.6 µM [activator, single point] | –
42 | O=C(OCc1cccc(F)c1)c1ccc2c(c1)-c1ccccc1C2=O | inconclusive: 1.83 µM [inhibitor, full curve] | –
43 | CCOc1ccc(NC(=O)CN2CCN(CC(=O)Nc3ccc(N(CC)CC)cc3)CC2)cc1 | – | inactive: -0.938% [at 46.1 µM]
44 | O=C(CC1SC(=O)N(c2ccccc2)C1=O)Nc1ccc(Br)cc1 (centres undefined) | – | inactive: 3.08%
45 | Cc1ccc(NC2=C(N3CCOCC3)C(=O)c3ccccc3C2=O)cc1 | inconclusive: 18.3 µM [inhibitor, single point] | –
46 | Cc1cc(NC(=O)c2cccc(F)c2)no1 | – | inactive: 0.888%

Row | SMILES | Potency | activity change, negative = inhibition
47 | Cn1c(SCC(N)=O)nnc1-c1cnccn1 | – | inactive: 7.31%
48 | CCOC(=O)c1c(NC(=O)CSc2nc3ccccc3s2)sc(C)c1C | inconclusive: 9.2 µM [inhibitor, partial curve, poor fit] | –
49 | CC(Sc1nnc(-c2ccccc2)c(-c2ccccc2)n1)C(=O)N1CCc2ccccc21 (centres undefined) | inconclusive: 35.5 µM [inhibitor, single point] | –
50 | Cc1ccc(NC(=O)C2CCN(S(=O)(=O)c3ccc4c(c3)CCCC(=O)N4)CC2)c(Cl)c1 | inconclusive: 10 µM [inhibitor, partial curve, poor fit] | –
51 | COC(=O)CC=C[C@@H](C)[C@@H](C=NO[C@H](C)CN1CCCc2nc(C)c(C)cc21)N[S+](=O)([O-])c1ccc(C)cc1 | inconclusive: 0.841 µM [activator, partial curve, poor fit] | –
52 | O=C(CNC(=O)c1ccc2c(c1)OCCO2)N/N=C/c1ccco1 | inconclusive: 2.51 µM [inhibitor, partial curve, poor fit] | –
53 | CC(=O)c1c(C)[nH]c(C(=O)COC(=O)c2cccnc2Cl)c1C | inconclusive: 6.31 µM [activator, partial curve] | –
54 | CCc1ccccc1NC(=O)Cn1nnc(-c2nc(-c3ccncc3)no2)c1N | inconclusive: 28.2 µM [activator, single point] | –
55 | CC(=O)Nc1cccc(NC(=O)c2cc3ccccc3o2)c1 | inconclusive: 2.59 µM [activator, single point] | –
56 | O=C(ONC1=NCCCCC1)c1cccc([N+](=O)[O-])c1 | inconclusive: 17.8 µM [inhibitor, single point] | –
57 | COc1cc(NS(=O)(=O)c2ccc3c(c2)CC(=O)N3)cc(OC)c1OC | inconclusive: 3.16 µM [activator, full curve, poor fit] | –
58 | Cc1cc(/C=C(\C#N)C(=O)NCc2cccs2)c(C)[nH]1 | – | inactive: 0.771%
59 | Cc1ccc(/C=N/n2c(-c3ccncc3)n[nH]c2=S)s1 | inconclusive: 1.12 µM [inhibitor, partial curve, poor fit] | –
60 | O=S(=O)(c1ccccc1)N1CCC(O)(CSc2ccc(F)cc2)CC1 | inconclusive: 7.08 µM [inhibitor, full curve, poor fit] | –
61 | CCc1cccc(C)c1NC(=S)N(CCOC)C(C)c1ccco1 (centres undefined) | – | inactive: 0.753%
62 | COc1cc(NC(=O)c2cc3sccc3n2C)cc(OC)c1 | inconclusive: 0.651 µM [activator, partial curve, poor fit] | –
63 | CC(C)[C@H](NC(=O)c1ccccc1)C(=O)OCC(=O)c1ccc2c(c1)NC(=O)CO2 | inconclusive: 2.06 µM [inhibitor, single point] | –
64 | Nc1c(C(=O)Nc2ccc(F)cc2)nnn1-c1cccc(C(F)(F)F)c1 | inconclusive: 1.26 µM [inhibitor, single point] | –
65 | CCCCCCCn1c2c(c(=N)c3c1CCC3)CCCC2 | inconclusive: 6.31 µM [inhibitor, full curve, poor fit] | –
66 | O=C(c1cc([N+](=O)[O-])ccc1N1CCN(S(=O)(=O)c2ccc(Cl)c(Cl)c2)CC1)N1CCOCC1 | inconclusive: 7.08 µM [inhibitor, partial curve, poor fit] | –
67 | COc1ccccc1C1(CC(=O)O)CCOC(C)(C)C1 (centres undefined) | – | inactive: 5.15%
68 | CC1=Nc2cc(C(=O)NC3CCCCC3)ccc2Sc2ccc(Cl)cc21 | active: 3.98 µM | –
69 | CN1CCN(S(=O)(=O)c2ccc(C(=O)NC3CCCCC3)cc2)CC1 | inconclusive: 14.1 µM [activator, single point] | –

Entries of single compounds as entered above. Values in the order: Potency	activity change, negative = inhibition
O=C(c1cc([N+](=O)[O-])ccc1N1CCN(S(=O)(=O)c2ccc(Cl)c(Cl)c2)CC1)N1CCOCC1 in the list: inconclusive: 7.08 µM [inhibitor, partial curve, poor fit]	–
CN1CCN(S(=O)(=O)c2ccc(C(=O)NC3CCCCC3)cc2)CC1 in the list: inconclusive: 14.1 µM [activator, single point]	–
CC(=O)c1c(C)[nH]c(C(=O)COC(=O)c2cccnc2Cl)c1C in the list: inconclusive: 6.31 µM [activator, partial curve]	–
CC1=Nc2cc(C(=O)NC3CCCCC3)ccc2Sc2ccc(Cl)cc21 in the list: active: 3.98 µM	–
